The list does not hold the whole screen: it covers a few groups of compounds. Other doses and runs of a compound may be missing. T/C: endpoint of the treated group in % of that of the vehicle group. Some T/C values are marked as having no survivor count here; that says nothing about deaths at the dose. Schedules are NCI's codes, read here as Q, the interval in days (D) or hours (H), X, the number of doses. Some doses were run more than once; the results are listed from low to high. Some schedule codes hold Z or #, which are not explained here.
System: BDF1 mice, Adenocarcinoma 755 s.c., tumor weight T/C
Test: NCI In Vivo Anticancer Drug Screen. Data for tumor model Adenocarcinoma 755 (subcutaneous) in B6D2F1 (BDF1) mice
Details: T/C endpoint: mean tumor weight, evaluation day not shown, higher T/C = larger tumour
Protocol: The antitumor activity of compounds was measured in mice bearing transplantable tumors. Survival or tumor size were measured and the results are expressed as the measurement made in the treated group (T) divided by the measurement made in the vehicle treated control group (C). The tumor model used in this assay is Adenocarcinoma 755 (subcutaneous) in B6D2F1 (BDF1) mice

[1] = dose: 5.3 mg/kg/injection, schedule: Q01DX011 (ip), vehicle: methylcellulose (MC)

With `O=C(O)COc1cccc(N(CCCl)CCCl)c1` the T/C (dose: 11.25 mg/kg/injection, schedule: Q01DX011 (ip), vehicle: methylcellulose (MC)) was 58 % of control [survivor count not shown], the T/C (dose: 22.5 mg/kg/injection, schedule: Q01DX011 (ip), vehicle: methylcellulose (MC)) was 30 % of control [survivor count not shown] and the T/C (dose: 45.0 mg/kg/injection, schedule: Q01DX011 (ip), vehicle: methylcellulose (MC)) was 11 % of control [survivor count not shown]. For the same molecule, the T/C (dose: 90.0 mg/kg/injection, schedule: Q01DX011 (ip), vehicle: methylcellulose (MC)) was 5 % of control [survivor count not shown].
For `O=P(Cl)(Cl)N(CCF)CCF`, the T/C (dose: 0.15 mg/kg/injection, schedule: Q01DX011 (ip), vehicle: saline) was 64 % of control [survivor count not shown], the T/C (dose: 0.31 mg/kg/injection, schedule: Q01DX011 (ip), vehicle: saline) was 120 % of control [survivor count not shown] and the T/C (dose: 0.63 mg/kg/injection, schedule: Q01DX011 (ip), vehicle: saline) was 86 % of control [survivor count not shown]. For the same molecule, the T/C (dose: 1.25 mg/kg/injection, schedule: Q01DX011 (ip), vehicle: saline) was 34 [survivor count not shown] and 83 % of control [survivor count not shown] and the T/C (dose: 2.5 mg/kg/injection, schedule: Q01DX011 (ip), vehicle: saline) was 55 % of control [survivor count not shown].
In the case of `Oc1ccc(Cl)cc1CN(CCCl)CCCl`, the T/C (dose: 1.5 mg/kg/injection, schedule: Q01DX011 (ip), vehicle: methylcellulose (MC)) is reported as 65 % of control [survivor count not shown], the T/C (dose: 2.3 mg/kg/injection, schedule: Q01DX011 (ip), vehicle: methylcellulose (MC)) is reported as 56 % of control [survivor count not shown] and the T/C (dose: 2.8 mg/kg/injection, schedule: Q01DX011 (ip), vehicle: saline) is reported as 105 % of control [survivor count not shown]. The T/C (dose: 3.5 mg/kg/injection, schedule: Q01DX011 (ip), vehicle: methylcellulose (MC)) was 56 % of control [survivor count not shown], the T/C [1] was 27 % of control [survivor count not shown] and the T/C (dose: 5.5 mg/kg/injection, schedule: Q01DX011 (ip), vehicle: saline) was 86 % of control [survivor count not shown]. For the same molecule, the T/C (dose: 8.0 mg/kg/injection, schedule: Q01DX011 (ip), vehicle: methylcellulose (MC)) was 33 % of control [survivor count not shown], the T/C (dose: 11.0 mg/kg/injection, schedule: Q01DX011 (ip), vehicle: saline) was 25 % of control [survivor count not shown] and the T/C (dose: 12.0 mg/kg/injection, schedule: Q01DX011 (ip), vehicle: methylcellulose (MC)) was 26 % of control [survivor count not shown]. For the same molecule, the T/C (dose: 18.0 mg/kg/injection, schedule: Q01DX011 (ip), vehicle: methylcellulose (MC)) was 19 % of control [survivor count not shown] and the T/C (dose: 27.0 mg/kg/injection, schedule: Q01DX011 (ip), vehicle: methylcellulose (MC)) was 19 % of control [survivor count not shown].
For `CCCCOc1ccc(N(CCCl)CCCl)cc1`, the T/C (dose: 1.0 mg/kg/injection, schedule: Q01DX011 (ip), vehicle: carboxymethylcellulose (CMC)) was 101 % of control [survivor count not shown], the T/C (dose: 1.4 mg/kg/injection, schedule: Q01DX011 (ip), vehicle: carboxymethylcellulose (CMC)) was 48 % of control [survivor count not shown] and the T/C (dose: 2.1 mg/kg/injection, schedule: Q01DX011 (ip), vehicle: methylcellulose (MC)) was 32 % of control [survivor count not shown]. The T/C (dose: 2.5 mg/kg/injection, schedule: Q01DX011 (ip), vehicle: methylcellulose (MC)) was 53 % of control [survivor count not shown], the T/C (dose: 2.7 mg/kg/injection, schedule: Q01DX011 (ip), vehicle: carboxymethylcellulose (CMC)) was 60 % of control [survivor count not shown] and the T/C (dose: 5.0 mg/kg/injection, schedule: Q01DX011 (ip), vehicle: methylcellulose (MC)) was 31 [survivor count not shown] and 40 % of control [survivor count not shown]. For the same molecule, the T/C (dose: 5.3 mg/kg/injection, schedule: Q01DX011 (ip), vehicle: carboxymethylcellulose (CMC)) was 17 % of control [survivor count not shown], the T/C [1] was 23 % of control [survivor count not shown] and the T/C (dose: 9.0 mg/kg/injection, schedule: Q01DX011 (ip), vehicle: carboxymethylcellulose (CMC)) was 62 % of control [survivor count not shown]. The T/C (dose: 10.5 mg/kg/injection, schedule: Q01DX011 (ip), vehicle: carboxymethylcellulose (CMC)) was 9 % of control [survivor count not shown], the T/C (dose: 10.5 mg/kg/injection, schedule: Q01DX011 (ip), vehicle: methylcellulose (MC)) was 1 % of control [survivor count not shown] and the T/C (dose: 15.8 mg/kg/injection, schedule: Q01DX011 (ip), vehicle: carboxymethylcellulose (CMC)) was 3 % of control [survivor count not shown]. For the same molecule, the T/C (dose: 17.0 mg/kg/injection, schedule: Q01DX011 (ip), vehicle: carboxymethylcellulose (CMC)) was 51 % of control [survivor count not shown], the T/C (dose: 25.0 mg/kg/injection, schedule: Q01DX011 (ip), vehicle: carboxymethylcellulose (CMC)) was 17 % of control [survivor count not shown] and the T/C (dose: 50.0 mg/kg/injection, schedule: Q01DX011 (ip), vehicle: carboxymethylcellulose (CMC)) was 39 % of control [survivor count not shown].
`NC(Cc1ccccc1N(CCCl)CCCl)C(=O)O` (stereo not drawn) was tested, and the T/C (dose: 0.19 mg/kg/injection, schedule: Q#A X022 (ip), vehicle: carboxymethylcellulose (CMC)) was 59 % of control [survivor count not shown], the T/C (dose: 0.25 mg/kg/injection, schedule: Q01DX011 (ip), vehicle: methylcellulose (MC)) was 66 % of control [survivor count not shown] and the T/C (dose: 0.37 mg/kg/injection, schedule: Q#A X022 (ip), vehicle: carboxymethylcellulose (CMC)) was 13 % of control [survivor count not shown]. For the same molecule, the T/C (dose: 0.38 mg/kg/injection, schedule: Q01DX011 (ip), vehicle: carboxymethylcellulose (CMC)) was 63 % of control [survivor count not shown], the T/C (dose: 0.38 mg/kg/injection, schedule: Q01DX011 (oral), vehicle: saline) was 62 % of control [survivor count not shown] and the T/C (dose: 0.5 mg/kg/injection, schedule: Q01DX011 (ip), vehicle: methylcellulose (MC)) was 17 % of control [survivor count not shown]. For the same molecule, the T/C (dose: 0.75 mg/kg/injection, schedule: Q01DX011 (ip), vehicle: carboxymethylcellulose (CMC)) was 11 % of control [survivor count not shown], the T/C (dose: 0.75 mg/kg/injection, schedule: Q01DX011 (oral), vehicle: saline) was 32 % of control [survivor count not shown] and the T/C (dose: 0.75 mg/kg/injection, schedule: Q#A X022 (ip), vehicle: carboxymethylcellulose (CMC)) was 3 % of control [survivor count not shown]. The T/C (dose: 1.0 mg/kg/injection, schedule: Q01DX011 (ip), vehicle: methylcellulose (MC)) was 5 % of control [survivor count not shown], the T/C (dose: 1.14 mg/kg/injection, schedule: Q03DX004 (ip), vehicle: carboxymethylcellulose (CMC)) was 51 % of control [survivor count not shown] and the T/C (dose: 1.5 mg/kg/injection, schedule: Q01DX011 (ip), vehicle: carboxymethylcellulose (CMC)) was 2 % of control [survivor count not shown]. The T/C (dose: 1.5 mg/kg/injection, schedule: Q01DX011 (oral), vehicle: carboxymethylcellulose (CMC)) was 10 % of control [survivor count not shown], the T/C (dose: 1.5 mg/kg/injection, schedule: Q01DX011 (oral), vehicle: saline) was 4 % of control [survivor count not shown] and the T/C (dose: 2.0 mg/kg/injection, schedule: Q01DX011 (ip), vehicle: methylcellulose (MC)) was 5 % of control [survivor count not shown]. The T/C (dose: 2.25 mg/kg/injection, schedule: Q03DX004 (ip), vehicle: carboxymethylcellulose (CMC)) was 18 % of control [survivor count not shown], the T/C (dose: 3.0 mg/kg/injection, schedule: Q01DX011 (oral), vehicle: carboxymethylcellulose (CMC)) was 1 % of control [survivor count not shown] and the T/C (dose: 3.0 mg/kg/injection, schedule: Q01DX011 (oral), vehicle: saline) was 3 % of control [survivor count not shown].
